Test system: MAPK pathway readouts (pERK, pMEK, pRSK) in A375 and HCT-116
Assay: Western blot of MAPK pathway readouts, treatment with trametinib combinations
Assay type: cell-based
Conditions: combined with trametinib

CN[C@@H]1C[C@H]2O[C@@](C)([C@@H]1OC)n1c3ccccc3c3c4c(c5c6ccccc6n2c5c31)C(=O)NC4 [staurosporine]
MAPK pathway inhibition (pERK, pMEK, pRSK) in combination with trametinib: not observed

Source: patent US10548897B2, “KSR antagonists” (Icahn School of Medicine at Mount Sinai, priority 2015, dated 2020)
